Test results taken from publication PMC10729423.
Results are given in words; binding and its absence hold for the method and conditions named. Binding seen in cells or lysates may run through a third protein. Some entries that bind do so weakly or less than the wild type.

The chains behind the UniProt entries cited, without tags or fusion partners.
UniProt Q6R327: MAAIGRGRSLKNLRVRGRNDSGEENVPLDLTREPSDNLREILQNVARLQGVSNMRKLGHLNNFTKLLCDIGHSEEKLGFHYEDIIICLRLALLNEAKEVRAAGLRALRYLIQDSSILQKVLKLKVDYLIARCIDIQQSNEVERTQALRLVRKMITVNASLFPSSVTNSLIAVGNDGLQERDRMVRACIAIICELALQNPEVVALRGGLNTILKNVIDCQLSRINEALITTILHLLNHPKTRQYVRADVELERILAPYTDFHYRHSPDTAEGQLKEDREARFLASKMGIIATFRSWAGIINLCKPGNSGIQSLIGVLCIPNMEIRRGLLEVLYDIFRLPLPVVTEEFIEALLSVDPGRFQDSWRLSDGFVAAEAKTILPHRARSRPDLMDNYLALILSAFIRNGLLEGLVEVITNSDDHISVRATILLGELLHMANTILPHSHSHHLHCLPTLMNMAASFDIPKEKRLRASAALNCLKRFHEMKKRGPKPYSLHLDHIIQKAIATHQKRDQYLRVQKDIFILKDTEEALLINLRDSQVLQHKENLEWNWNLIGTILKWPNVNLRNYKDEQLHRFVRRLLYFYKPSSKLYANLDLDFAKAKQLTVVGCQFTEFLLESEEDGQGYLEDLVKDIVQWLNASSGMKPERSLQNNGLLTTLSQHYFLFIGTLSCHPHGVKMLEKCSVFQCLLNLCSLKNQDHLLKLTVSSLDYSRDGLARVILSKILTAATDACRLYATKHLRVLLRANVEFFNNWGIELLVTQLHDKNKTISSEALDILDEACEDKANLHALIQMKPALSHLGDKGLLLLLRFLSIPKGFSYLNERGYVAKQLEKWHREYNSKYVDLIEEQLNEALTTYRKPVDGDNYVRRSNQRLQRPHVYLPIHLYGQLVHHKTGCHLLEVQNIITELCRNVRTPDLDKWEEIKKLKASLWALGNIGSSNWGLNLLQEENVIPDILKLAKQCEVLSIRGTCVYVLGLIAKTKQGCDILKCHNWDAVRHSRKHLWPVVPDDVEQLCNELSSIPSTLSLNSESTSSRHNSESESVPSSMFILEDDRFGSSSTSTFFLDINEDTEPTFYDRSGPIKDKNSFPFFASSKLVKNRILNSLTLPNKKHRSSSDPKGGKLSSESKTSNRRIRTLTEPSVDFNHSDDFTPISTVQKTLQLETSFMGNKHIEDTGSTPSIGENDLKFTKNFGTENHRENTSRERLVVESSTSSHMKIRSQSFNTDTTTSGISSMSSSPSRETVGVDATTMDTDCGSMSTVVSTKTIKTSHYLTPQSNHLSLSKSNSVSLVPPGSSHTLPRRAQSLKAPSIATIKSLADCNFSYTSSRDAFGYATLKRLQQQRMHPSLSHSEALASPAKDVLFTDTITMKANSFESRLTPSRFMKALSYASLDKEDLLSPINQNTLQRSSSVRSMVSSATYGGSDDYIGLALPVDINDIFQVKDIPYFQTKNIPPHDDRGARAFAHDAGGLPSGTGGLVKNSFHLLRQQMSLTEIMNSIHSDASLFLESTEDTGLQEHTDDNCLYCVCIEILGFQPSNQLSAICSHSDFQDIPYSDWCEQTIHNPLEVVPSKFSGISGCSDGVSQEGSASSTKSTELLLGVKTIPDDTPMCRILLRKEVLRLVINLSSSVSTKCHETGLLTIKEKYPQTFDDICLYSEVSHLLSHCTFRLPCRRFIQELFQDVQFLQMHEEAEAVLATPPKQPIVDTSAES

Experiments:
[1] = target: Rictor (human (endogenous in Hep3B)) (UniProt Q6R327); test: co-IP; Hep3B cells 48 h after transfection with pCMV-p53wt; precipitation with Rictor and p53 antibodies, immunoblotting
[2] = target: Rictor (human (endogenous in Hep3B)) (UniProt Q6R327); test: condition: only cytoplasmic proteins (fractionation); co-IP; Hep3B cells transfected with pCMV-p53wt, fractionated; cytoplasmic proteins only; precipitation with the Rictor antibody

wild-type p53 (from UniProt P04637 1-393)
binding [1]: binds | binding [2]: no binding
